The target of the experiment is G protein-coupled receptor 56 (GPR56), overexpressed in cells used for immunoprecipitation and mass spectrometry (UniProt Q9Y653). Briefly: affinity purification with mass spectrometry; immunoprecipitation from GPR56 overexpressing cells, silver staining and mass spectrum.

Amino acid sequences for entries named in this document (tags omitted). Residues count along the entry.
UniProt Q9Y653, residues 26-693: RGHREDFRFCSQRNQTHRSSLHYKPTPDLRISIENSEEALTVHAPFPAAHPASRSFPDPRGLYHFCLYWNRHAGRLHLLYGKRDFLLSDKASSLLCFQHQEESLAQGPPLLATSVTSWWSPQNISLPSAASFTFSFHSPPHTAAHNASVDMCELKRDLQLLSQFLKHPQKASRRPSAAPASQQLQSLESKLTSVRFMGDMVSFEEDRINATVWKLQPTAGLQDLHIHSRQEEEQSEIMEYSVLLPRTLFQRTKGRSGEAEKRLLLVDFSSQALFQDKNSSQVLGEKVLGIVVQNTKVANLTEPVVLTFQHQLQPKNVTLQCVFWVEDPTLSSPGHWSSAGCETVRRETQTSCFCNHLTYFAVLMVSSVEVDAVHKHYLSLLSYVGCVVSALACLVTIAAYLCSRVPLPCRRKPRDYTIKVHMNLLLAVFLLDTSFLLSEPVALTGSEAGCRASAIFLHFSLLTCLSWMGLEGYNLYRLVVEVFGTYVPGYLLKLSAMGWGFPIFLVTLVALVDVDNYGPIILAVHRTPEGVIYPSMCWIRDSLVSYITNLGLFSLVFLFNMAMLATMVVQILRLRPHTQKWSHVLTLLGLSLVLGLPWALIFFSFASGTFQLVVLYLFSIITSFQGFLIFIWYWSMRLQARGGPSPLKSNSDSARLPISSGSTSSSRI

No constants are given. Whether binding was seen depends on the method and setting. Binding seen in cells or lysates may run through a third protein. These calls come from enrichment with a bait or labelling near it, and not all partners need be listed.

B1: TGF-β receptor 1 (TGFBR1), found in the GPR56 immunoprecipitate by mass spectrometry (receptor, UniProt P36897 34-503)
chain: LQCFCHLCTKDNFTCVTDGLCFVSVTETTDKVIHNSMCIAEIDLIPRDRPFVCAPSSKTGSVTTTYCCNQDHCNKIELPTTVKSSPGLGPVELAAVIAGPVCFVCISLMLMVYICHNRTVIHHRVPNEEDPSLDRPFISEGTTLKDLIYDMTTSGSGSGLPLLVQRTIARTIVLQESIGKGRFGEVWRGKWRGEEVAVKIFSSREERSWFREAEIYQTVMLRHENILGFIAADNKDNGTWTQLWLVSDYHEHGSLFDYLNRYTVTVEGMIKLALSTASGLAHLHMEIVGTQGKPAIAHRDLKSKNILVKKNGTCCIADLGLAVRHDSATDTIDIAPNHRVGTKRYMAPEVLDDSINMKHFESFKRADIYAMGLVFWEIARRCSIGGIHEDYQLPYYDLVPSDPSVEEMRKVVCEQKLRPNIPNRWQSCEALRVMAKIMRECWYANGAARLTALRIKKTLSQLSQQEGIKM
With B1, the binding entry is given as “binds”.

Values taken from PMC11445230.
